{"sequences": {"note": "Protein sequences, listed by entry. Tags and fused reporters are not part of them. Lines headed by an entry give the natural chain unless they say otherwise; changes in a name come on top. Residues count along the entry.", "UniProt O60934, 483-502": "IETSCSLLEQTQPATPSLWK", "UniProt Q69YL0": "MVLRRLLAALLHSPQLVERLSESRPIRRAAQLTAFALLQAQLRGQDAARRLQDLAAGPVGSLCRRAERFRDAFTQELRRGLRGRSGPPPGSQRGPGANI", "UniProt Q8NC96": "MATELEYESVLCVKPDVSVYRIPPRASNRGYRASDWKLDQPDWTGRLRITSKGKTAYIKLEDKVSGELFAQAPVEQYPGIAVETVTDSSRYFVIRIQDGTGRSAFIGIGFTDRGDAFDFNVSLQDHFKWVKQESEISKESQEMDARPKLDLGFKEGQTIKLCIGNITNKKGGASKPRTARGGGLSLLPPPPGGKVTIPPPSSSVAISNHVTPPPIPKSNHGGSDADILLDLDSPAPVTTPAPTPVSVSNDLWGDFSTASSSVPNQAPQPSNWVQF", "UniProt Q76FK4, 605-634": "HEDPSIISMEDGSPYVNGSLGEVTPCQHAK", "UniProt Q96PY6": "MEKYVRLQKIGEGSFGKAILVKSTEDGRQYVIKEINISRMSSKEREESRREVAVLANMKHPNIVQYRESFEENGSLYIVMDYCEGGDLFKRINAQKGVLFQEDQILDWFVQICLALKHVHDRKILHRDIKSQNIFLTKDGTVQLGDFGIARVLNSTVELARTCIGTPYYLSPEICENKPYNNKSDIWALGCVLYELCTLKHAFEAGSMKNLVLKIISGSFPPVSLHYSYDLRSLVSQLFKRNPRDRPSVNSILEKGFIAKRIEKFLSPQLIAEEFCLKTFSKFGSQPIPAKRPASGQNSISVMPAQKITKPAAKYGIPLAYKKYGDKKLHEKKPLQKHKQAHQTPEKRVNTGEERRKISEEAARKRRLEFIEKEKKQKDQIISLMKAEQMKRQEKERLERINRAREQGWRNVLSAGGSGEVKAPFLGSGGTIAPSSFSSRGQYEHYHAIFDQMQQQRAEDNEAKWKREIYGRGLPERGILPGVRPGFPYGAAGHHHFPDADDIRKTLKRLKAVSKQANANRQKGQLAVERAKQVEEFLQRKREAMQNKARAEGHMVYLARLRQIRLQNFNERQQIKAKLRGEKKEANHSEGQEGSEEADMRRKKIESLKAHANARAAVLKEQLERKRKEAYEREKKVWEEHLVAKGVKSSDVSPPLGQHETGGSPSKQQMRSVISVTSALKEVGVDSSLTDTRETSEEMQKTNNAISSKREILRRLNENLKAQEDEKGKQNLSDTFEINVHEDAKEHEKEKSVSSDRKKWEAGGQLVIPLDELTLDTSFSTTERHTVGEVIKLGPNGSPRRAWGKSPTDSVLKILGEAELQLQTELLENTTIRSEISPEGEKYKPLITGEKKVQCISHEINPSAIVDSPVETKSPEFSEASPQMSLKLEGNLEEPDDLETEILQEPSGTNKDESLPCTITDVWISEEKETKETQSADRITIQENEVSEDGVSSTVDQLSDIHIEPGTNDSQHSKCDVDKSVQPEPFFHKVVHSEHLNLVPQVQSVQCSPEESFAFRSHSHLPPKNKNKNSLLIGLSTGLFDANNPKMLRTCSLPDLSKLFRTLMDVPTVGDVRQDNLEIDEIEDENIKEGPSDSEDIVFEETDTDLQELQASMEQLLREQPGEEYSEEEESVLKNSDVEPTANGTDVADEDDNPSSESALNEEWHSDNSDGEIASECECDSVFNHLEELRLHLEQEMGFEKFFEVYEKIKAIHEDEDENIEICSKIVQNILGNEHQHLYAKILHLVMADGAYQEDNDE", "UniProt P51955": "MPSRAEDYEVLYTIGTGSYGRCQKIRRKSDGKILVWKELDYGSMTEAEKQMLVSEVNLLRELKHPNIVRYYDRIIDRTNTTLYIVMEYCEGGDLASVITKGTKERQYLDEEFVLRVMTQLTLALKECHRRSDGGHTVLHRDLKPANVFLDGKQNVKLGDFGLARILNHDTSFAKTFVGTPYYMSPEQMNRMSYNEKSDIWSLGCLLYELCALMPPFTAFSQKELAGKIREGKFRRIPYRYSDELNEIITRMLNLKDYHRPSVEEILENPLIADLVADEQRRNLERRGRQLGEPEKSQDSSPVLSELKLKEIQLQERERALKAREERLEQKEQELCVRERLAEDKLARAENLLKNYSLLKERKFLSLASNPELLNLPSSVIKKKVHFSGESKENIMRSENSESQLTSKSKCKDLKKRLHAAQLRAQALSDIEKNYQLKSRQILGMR", "UniProt Q8TDX7, 249-268": "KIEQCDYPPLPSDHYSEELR", "UniProt P52849": "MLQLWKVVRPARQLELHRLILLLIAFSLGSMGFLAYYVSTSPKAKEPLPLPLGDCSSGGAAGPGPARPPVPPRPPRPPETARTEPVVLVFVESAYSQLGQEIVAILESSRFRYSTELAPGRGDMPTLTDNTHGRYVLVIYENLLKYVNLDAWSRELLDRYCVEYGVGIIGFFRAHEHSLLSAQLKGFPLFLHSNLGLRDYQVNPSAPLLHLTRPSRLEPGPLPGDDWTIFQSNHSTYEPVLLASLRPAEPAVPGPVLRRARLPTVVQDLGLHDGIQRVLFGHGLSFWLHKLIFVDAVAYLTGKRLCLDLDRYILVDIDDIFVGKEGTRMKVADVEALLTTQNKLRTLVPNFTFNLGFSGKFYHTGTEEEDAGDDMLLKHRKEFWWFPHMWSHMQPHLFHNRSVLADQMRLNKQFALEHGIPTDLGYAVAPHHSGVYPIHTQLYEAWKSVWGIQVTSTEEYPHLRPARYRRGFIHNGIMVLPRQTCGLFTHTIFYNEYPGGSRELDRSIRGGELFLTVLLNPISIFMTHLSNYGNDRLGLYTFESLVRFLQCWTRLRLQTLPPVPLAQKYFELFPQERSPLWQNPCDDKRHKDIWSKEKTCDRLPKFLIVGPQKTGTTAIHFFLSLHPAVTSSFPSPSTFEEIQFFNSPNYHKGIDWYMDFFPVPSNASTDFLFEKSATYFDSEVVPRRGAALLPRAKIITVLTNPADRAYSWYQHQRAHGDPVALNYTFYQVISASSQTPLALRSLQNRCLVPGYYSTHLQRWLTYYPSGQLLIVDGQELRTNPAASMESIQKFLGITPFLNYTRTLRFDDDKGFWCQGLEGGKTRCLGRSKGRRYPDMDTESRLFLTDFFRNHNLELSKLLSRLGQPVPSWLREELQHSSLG", "UniProt Q9Y697, 372-393": "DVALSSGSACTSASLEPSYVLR"}, "source": "the supplement of paper PMC11732987", "about": "“Enantioselective OTUD7B fragment discovery through chemoproteomics screening and high-throughput optimisation” (Communications Chemistry, 2025)", "compound": "ClCC(=O)N[C@H]1CCCc2ccccc12", "experiment": "log2 mean competition ratio of IA-DTB cysteine labelling (DMSO/compound) (log2 ratio); higher = stronger cysteine engagement by compound", "settings": "treatment time: 4 h, cell line lysate: HEK293T", "experimental": "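IA-DTB competitive cysteine chemoproteomics in HEK293T RIPA lysate. Lysates were treated with compound 29 or 30 at 50 or 200 µM for 4 h, then IA-DTB (500 µM, 1 h), trypsin-digested, NeutrAvidin-enriched and analysed by diaPASEF. Competition ratio = intensity DMSO / intensity compound (n=4 treated, n=64 DMSO); binding: mean log2 CR ≥ 1 and p ≤ 0.05 plus QC filters. Target is the cysteine site.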", "note": "Some of the results follow. The data scatter; read single values as rough."}
{"target": "NBN C487 (UniProt O60934)", "values": [{"measurement": "log2 mean competition ratio", "setting": "50 µM", "value": 0.164}, {"measurement": "log2 mean competition ratio", "setting": "200 µM", "value": 0.293}]}
{"target": "NCBP2AS2 C63 (UniProt Q69YL0)", "values": [{"measurement": "log2 mean competition ratio", "setting": "50 µM", "value": 0.0389}, {"measurement": "log2 mean competition ratio", "setting": "200 µM", "value": 0.105}]}
{"target": "NECAP1 C162 (UniProt Q8NC96)", "values": [{"measurement": "log2 mean competition ratio", "setting": "50 µM", "value": 0.0889}, {"measurement": "log2 mean competition ratio", "setting": "200 µM", "value": -0.189}]}
{"target": "NOL8 C630 (UniProt Q76FK4)", "values": [{"measurement": "log2 mean competition ratio", "setting": "50 µM", "value": 0.362}, {"measurement": "log2 mean competition ratio", "setting": "200 µM", "value": -0.192}]}
{"target": "NEK1 C1223 (UniProt Q96PY6)", "values": [{"measurement": "log2 mean competition ratio", "setting": "50 µM", "value": -0.475}, {"measurement": "log2 mean competition ratio", "setting": "200 µM", "value": 0.0612}]}
{"target": "NEK2 C335 (UniProt P51955)", "values": [{"measurement": "log2 mean competition ratio", "setting": "50 µM", "value": 0.187}, {"measurement": "log2 mean competition ratio", "setting": "200 µM", "value": 0.134}]}
{"target": "NEK7 C253 (UniProt Q8TDX7)", "values": [{"measurement": "log2 mean competition ratio", "setting": "50 µM", "value": 0.377}, {"measurement": "log2 mean competition ratio", "setting": "200 µM", "value": 0.0451}]}
{"target": "NEK7 C298 (UniProt Q8TDX7)", "values": [{"measurement": "log2 mean competition ratio", "setting": "50 µM", "value": -0.00342}, {"measurement": "log2 mean competition ratio", "setting": "200 µM", "value": 0.116}]}
{"target": "NDST2 C585 (UniProt P52849)", "values": [{"measurement": "log2 mean competition ratio", "setting": "50 µM", "value": -0.676}, {"measurement": "log2 mean competition ratio", "setting": "200 µM", "value": 0.203}]}
{"target": "NFS1 C381 (UniProt Q9Y697)", "values": [{"measurement": "log2 mean competition ratio", "setting": "50 µM", "value": 0.336}, {"measurement": "log2 mean competition ratio", "setting": "200 µM", "value": -0.165}]}
